Experimental data: the supplement of paper PMC12009310
Structures can show the parent of a compound that is named as a salt. ± gives the standard deviation of the averaged measurements. Some of the results follow. Part of the spread comes from offsets between plates or batches.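 The cells are a mouse kidney inner medullary collecting duct line, silenced either for the ciliary gene Rpgrip1l or with a non-targeting control siRNA.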

Each molecule was assayed on mIMCD3 (assay: robust z score of cell number vs plate controls; higher = more cells (less cytotoxic)). Settings: 10 µM; 48 h; siRNA: siScr.

SMILES | robust z score of cell number
O=C1NN(C(=O)Nc2ccc(Br)cc2)[C@@H](c2ccccc2)[C@@H]1c1ccccc1 | -23.1 ± 8.4
CCCCCCCC/C=C\CCCCCCCC(=O)NCc1ccc(O)c(OC)c1 [Olvanil] | -28.4 ± 15
CCOC(=O)c1cnc2c(cnn2CC)c1NN=C(C)C [Etazolate hydrochloride] | -20.2 ± 9.6
CC(C)[N+]1(C)[C@@H]2CC[C@H]1C[C@@H](OC(=O)C(CO)c1ccccc1)C2 (some centres undefined) [Ipratropium bromide] | -2.13 ± 0.93
O=C(Nc1ccccc1)N[C@@H]1C[C@@H](C(=O)O)Nc2cc(Cl)cc(Cl)c21 | -1.97 ± 1.2
O=C(Nc1ccncc1)c1cc([N+](=O)[O-])ccc1Cl | -8.38 ± 2.7
CN=c1nc(-c2ccccc2)n(-c2ccccc2)s1 | -17.1 ± 2.3
N[C@@H](Cc1cc(-c2ccc(Cl)cc2Cl)cc(CP(=O)(O)O)c1O)C(=O)O | 0.555 ± 3.5
Nc1ccc(-c2cccc3c(=O)cc(N4CCOCC4)oc23)cc1 | -7.39 ± 2.8
Nc1nc2c(ccc3ccccc32)s1 | -0.881 ± 2.6
Clc1ccc2c(c1)N=C(N1CCNCC1)c1ccccc1N2 [N-Desmethylclozapine] | -20.3 ± 9.2
COc1cc(NC(=O)c2ccccn2)ccc1Cl | -9.2 ± 6
O=c1c(-c2ccc(O)cc2)coc2cc(O)cc(O)c12 [Genistein] | -8.29 ± 3.2
CC(C)(Sc1ccc(CCN(CCCCC2CCCCC2)C(=O)NC2CCCCC2)cc1)C(=O)O | -44.4 ± 30
CCC(CC)(CC(=O)Nc1cccc(/C=C/c2nc(C3CCC3)cs2)c1)C(=O)O [Cinalukast] | -24.3 ± 13
N#Cc1ccccc1OCC(O)CNCCNC(=O)Nc1ccccc1 (centres undefined) | -2.05 ± 5
CN(C)CCCSc1ccccc1NC(=O)/C=C/c1ccccc1 [Cinanserin hydrochloride] | -34.5 ± 19
O=C(O)Cc1ccc(OCCNC[C@H](O)c2ccccc2)cc1 [ZD 2079 hydrochloride] | -2.15 ± 5.2
CC(=O)NCCc1c(Cc2ccccc2)[nH]c2ccccc12 [Luzindole] | -4.35 ± 8.4
Cc1ccc(/C(=C\CN2CCCC2)c2ccccn2)cc1 [trans-Triprolidine hydrochloride] | 17 ± 19

SMILES | robust z score of cell number
COc1cc(N)c(Cl)cc1C(=O)OCCCN1CCCCC1 | -1.69 ± 1.5
C[N+]1(C)CCC(OC(=O)C(c2ccccc2)c2ccccc2)CC1 | -11.5 ± 13
Cc1nnc(-c2ccc3occ(-c4ccc([S+](C)[O-])cc4)c3c2)o1 (centres undefined) | 0.817 ± 6.5
COc1ccc2c(c1)c(CC(=O)O)c(C)n2C(=O)c1ccc(Cl)cc1 [Indomethacin] | -12.5 ± 0.57
CC[N+](CC)(CC)CC(=O)Nc1c(C)cccc1C [QX 314 chloride] | -0.845 ± 2.2
CNCCC(Oc1ccccc1OC)c1ccccc1 (centres undefined) [Nisoxetine hydrochloride] | -5.47 ± 0.44
C=CCc1cccc(/C=N/NC(=O)CN2CCN(Cc3ccccc3)CC2)c1O | -144 ± 110
CC(C)(C=O)Cc1cc(C(C)(C)C)c(O)c(C(C)(C)C)c1 | 8.7 ± 5.6
CNC(=O)[C@H]1O[C@@H](n2cnc3c(NCc4cccc(I)c4)ncnc32)[C@H](O)[C@@H]1O | 0.108 ± 2.5
CN(C)C/C=C(/c1ccc(Br)cc1)c1cccnc1 [Zimelidine dihydrochloride] | -3.73 ± 4.5
Cc1nn(-c2ccccc2)c(C)c1C=NN1CCN(Cc2ccccc2)CC1 | -1.54 ± 2.5
Oc1cc2c(cc1O)C(c1ccccc1)CNCC2 (centres undefined) | -3.11 ± 4.4
COc1cccc2c1C(=O)c1c(O)c3c(c(O)c1C2=O)C[C@@](O)(C(C)=O)C[C@@H]3O[C@H]1C[C@H](N)[C@H](O)[C@H](C)O1 [Daunorubicin hydrochloride] | -51.4 ± 1.4
c1nc(CC2CCNCC2)c[nH]1 [Immepip dihydrobromide] | -1.21 ± 3.7
CCC(=O)NC1CCc2cccc(OC)c2C1 (centres undefined) | 0.303 ± 0.015
COc1cc2nc(N3CCN(C(=O)c4ccco4)CC3)nc(N)c2cc1OC [Prazosin hydrochloride] | -83.8 ± 76
CCN(CC)CC1CCCCN1CC(=O)N1c2ccccc2C(=O)Nc2cccnc21 (centres undefined) | 0.226 ± 1.6
C[C@@H](NCc1cc(Br)cc2[nH]c(=O)c(=O)[nH]c12)P(=O)(O)O | 2.25 ± 2.4
CC(C(=O)O)c1ccc(-c2ccccc2)c(F)c1 (centres undefined) [Flurbiprofen] | -30.2 ± 1.2

In a second layout: entries from further up
SMILES	robust z score of cell number
CC[N+](CC)(CC)CC(=O)Nc1c(C)cccc1C [QX 314 chloride]	-0.845 ± 2.2
c1nc(CC2CCNCC2)c[nH]1 [Immepip dihydrobromide]	-1.21 ± 3.7
CCC(=O)NC1CCc2cccc(OC)c2C1 (centres undefined)	0.303 ± 0.015
